Experimental data reported in paper PMC3897714.
Results are given in words; binding and its absence hold for the method and conditions named.

Biological target: T1, zebrafish Nogo receptor zNgRH2a (zebrafish)
T1 sequence: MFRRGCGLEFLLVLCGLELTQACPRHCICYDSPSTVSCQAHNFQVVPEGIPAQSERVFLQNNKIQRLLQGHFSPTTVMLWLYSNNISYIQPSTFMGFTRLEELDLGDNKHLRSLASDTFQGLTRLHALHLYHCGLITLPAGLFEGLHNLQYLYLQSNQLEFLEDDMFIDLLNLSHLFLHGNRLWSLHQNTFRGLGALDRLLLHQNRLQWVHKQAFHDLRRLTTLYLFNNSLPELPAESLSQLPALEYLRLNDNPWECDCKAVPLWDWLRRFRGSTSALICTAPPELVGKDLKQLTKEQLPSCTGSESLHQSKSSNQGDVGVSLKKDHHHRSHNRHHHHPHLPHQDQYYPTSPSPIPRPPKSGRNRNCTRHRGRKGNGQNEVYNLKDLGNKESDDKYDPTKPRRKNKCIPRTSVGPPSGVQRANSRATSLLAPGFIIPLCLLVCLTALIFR
Experiment: alkaline phosphatase (AP) fusion binding assay on transfected cells; COS-1 cells transfected with one zebrafish Nogo receptor or pcDNA3 alone, incubated with conditioned media containing AP fusion proteins at room temperature for 3 h in HBH pH 7.0; fixed, endogenous AP heat-inactivated at 65°C, bound AP detected by NBT/BCIP

## AP-N(1–132)zNogo-B (zebrafish) (domain or fragment)
  binding: no binding
